{"source": "the supplement of paper PMC8728848", "binders": {"B1": {"name": "GS13814A-bth-462-26-462 (Bacteroides thetaiotaomicron) (protein)", "chain": "DDRDNLMVNDQIGLLHSTYTETEIFRGMDTPYQLFVIKSGKGKQETEVSISVDETVLQSYNTDNGTSIQLLPSDCYTILQPALRLNDSDYRKAFDIKWNADRLSDLLSTGKEYGLPIQMSVVQNFISADDERLKTIIVPTIKEPYLQMDVPGMSPVTDFMPTFGDLNERELFVKIRTNYSNDEDISFQIEVDPQLVIDYNTAHGTAYKMLPESSFTVDNKGVILTGMKETFIKIKYHKKGLIPEEGTYLFGDYVLPLRITSVSKYGISPDAASKLYTVKFQPDPIDKKGWSVIDFNNCCTQDGGWYLNMGWGVESLIDNNPGTQWLCRWDVKEPLPYYFVFDMGKEYTLFRFGFANPVAPAAHVWAGTSKAGYVEASIDNENWVKLKDWTSPKIGEPNVNMDVPATQARYIRFVITDTYPTYDGLRVSLGEVYAWGM"}}, "assay_in_all_cases": "glycan array binding signal (z-score within array); higher = stronger binding", "details_in_all_cases": "glycan notation: IUPAC condensed, linker removed", "key": {"[1]": {"molecular_target": "Neu5Ac(a2-3)Gal(b1-4)GlcNAc(b1-2)[Neu5Ac(a2-3)Gal(b1-4)GlcNAc(b1-4)]Man(a1-3)[GlcNAc(b1-4)][Neu5Ac(a2-3)Gal(b1-4)GlcNAc(b1-4)Man(a1-6)]Man(b1-4)GlcNAc(b1-4)GlcNAc", "outline": "(§1)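 Glycan array binding is given as a within-array Z-score, which can be read as non-binding when negative. The arrays, 3228 of them, came from the Consortium for Functional Glycomics database and were retained only where the protein sequence was available. Z-scores were averaged across arrays of the same protein sequence at different concentrations or buffers and across linkers.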"}, "[2]": {"molecular_target": "Neu5Ac(a2-3)Gal(b1-4)GlcNAc(b1-2)[Neu5Ac(a2-3)Gal(b1-4)GlcNAc(b1-6)]Man(a1-6)[Neu5Ac(a2-3)Gal(b1-4)GlcNAc(b1-2)Man(a1-3)]Man(b1-4)GlcNAc(b1-4)GlcNAc", "outline": "as §1"}, "[3]": {"molecular_target": "Neu5Ac(a2-3)Gal(b1-4)GlcNAc(b1-2)[Neu5Ac(a2-3)Gal(b1-4)GlcNAc(b1-6)]Man(a1-6)[Neu5Ac(a2-3)Gal(b1-4)GlcNAc(b1-2)Man(a1-3)][GlcNAc(b1-4)]Man(b1-4)GlcNAc(b1-4)GlcNAc", "outline": "as §1"}, "[4]": {"molecular_target": "Neu5Ac(a2-3)Gal(b1-4)GlcNAc(b1-3)Gal", "outline": "as §1"}, "[5]": {"molecular_target": "Neu5Ac(a2-3)Gal(b1-4)GlcNAc(b1-3)Gal(b1-3)GlcNAc", "outline": "as §1"}, "[6]": {"molecular_target": "Neu5Ac(a2-3)Gal(b1-4)GlcNAc(b1-3)Gal(b1-4)GlcNAc", "outline": "as §1"}, "[7]": {"molecular_target": "Neu5Ac(a2-3)Gal(b1-4)GlcNAc(b1-3)Gal(b1-4)GlcNAc(b1-2)Man(a1-3)[Neu5Ac(a2-3)Gal(b1-4)GlcNAc(b1-3)Gal(b1-4)GlcNAc(b1-2)Man(a1-6)]Man(b1-4)GlcNAc(b1-4)GlcNAc", "outline": "as §1"}, "[8]": {"molecular_target": "Neu5Ac(a2-3)Gal(b1-4)GlcNAc(b1-3)Gal(b1-4)GlcNAc(b1-3)Gal(b1-4)GlcNAc", "outline": "as §1"}, "[9]": {"molecular_target": "Neu5Ac(a2-3)Gal(b1-4)GlcNAc(b1-3)Gal(b1-4)GlcNAc(b1-3)Gal(b1-4)GlcNAc(b1-2)Man(a1-3)[Neu5Ac(a2-3)Gal(b1-4)GlcNAc(b1-3)Gal(b1-4)GlcNAc(b1-3)Gal(b1-4)GlcNAc(b1-2)Man(a1-6)]GalNAc", "outline": "as §1"}, "[10]": {"molecular_target": "Neu5Ac(a2-3)Gal(b1-4)GlcNAc(b1-3)Gal(b1-4)GlcNAc(b1-3)GalNAc", "outline": "as §1"}, "[11]": {"molecular_target": "Neu5Ac(a2-3)Gal(b1-4)GlcNAc(b1-3)Gal(b1-4)GlcNAc(b1-3)[Neu5Ac(a2-3)Gal(b1-4)GlcNAc(b1-3)Gal(b1-4)GlcNAc(b1-6)]GalNAc", "outline": "as §1"}, "[12]": {"molecular_target": "Neu5Ac(a2-3)Gal(b1-4)GlcNAc(b1-3)Gal(b1-4)GlcNAc(b1-6)[Gal(b1-3)]GalNAc", "outline": "as §1"}, "[13]": {"molecular_target": "Neu5Ac(a2-3)Gal(b1-4)GlcNAc(b1-3)Gal(b1-4)[Fuc(a1-3)]GlcNAc", "outline": "as §1"}, "[14]": {"molecular_target": "Neu5Ac(a2-3)Gal(b1-4)GlcNAc(b1-3)GalNAc", "outline": "as §1"}, "[15]": {"molecular_target": "Neu5Ac(a2-3)Gal(b1-4)GlcNAc(b1-3)[Neu5Ac(a2-3)Gal(b1-4)GlcNAc(b1-6)]GalNAc", "outline": "as §1"}, "[16]": {"molecular_target": "Neu5Ac(a2-3)Gal(b1-4)GlcNAc(b1-6)GalNAc", "outline": "as §1"}, "[17]": {"molecular_target": "Neu5Ac(a2-3)Gal(b1-4)GlcNAc(b1-6)[Gal(b1-3)]GalNAc", "outline": "as §1"}, "[18]": {"molecular_target": "Neu5Ac(a2-3)Gal(b1-4)GlcNAc(b1-6)[Neu5Ac(a2-3)Gal(b1-3)]GalNAc", "outline": "as §1"}, "[19]": {"molecular_target": "Neu5Ac(a2-3)Gal(b1-4)GlcNAc6S", "outline": "as §1"}, "[20]": {"molecular_target": "Neu5Ac(a2-3)Gal(b1-4)[Fuc(a1-3)]GlcNAc", "outline": "as §1"}, "[21]": {"molecular_target": "Neu5Ac(a2-3)Gal(b1-4)[Fuc(a1-3)]GlcNAc(b1-2)Man", "outline": "as §1"}, "[22]": {"molecular_target": "Neu5Ac(a2-3)Gal(b1-4)[Fuc(a1-3)]GlcNAc(b1-3)Gal", "outline": "as §1"}, "[23]": {"molecular_target": "Neu5Ac(a2-3)Gal(b1-4)[Fuc(a1-3)]GlcNAc(b1-3)Gal(b1-4)GlcNAc", "outline": "as §1"}, "[24]": {"molecular_target": "Neu5Ac(a2-3)Gal(b1-4)[Fuc(a1-3)]GlcNAc(b1-3)Gal(b1-4)[Fuc(a1-3)]GlcNAc(b1-3)Gal(b1-4)[Fuc(a1-3)]GlcNAc", "outline": "as §1"}, "[25]": {"molecular_target": "Neu5Ac(a2-3)Gal(b1-4)[Fuc(a1-3)]GlcNAc(b1-3)GalNAc", "outline": "as §1"}, "[26]": {"molecular_target": "Neu5Ac(a2-3)Gal(b1-4)[Fuc(a1-3)]GlcNAc(b1-6)[Gal(b1-3)]GalNAc", "outline": "as §1"}, "[27]": {"molecular_target": "Neu5Ac(a2-3)Gal(b1-4)[Fuc(a1-3)]GlcNAc(b1-6)[Neu5Ac(a2-3)Gal(b1-3)]GalNAc", "outline": "as §1"}, "[28]": {"molecular_target": "Neu5Ac(a2-3)Gal(b1-4)[Fuc(a1-3)]GlcNAc6S", "outline": "as §1"}, "[29]": {"molecular_target": "Neu5Ac(a2-3)Gal6S(b1-4)GlcNAc", "outline": "as §1"}, "[30]": {"molecular_target": "Neu5Ac(a2-3)Gal6S(b1-4)[Fuc(a1-3)]GlcNAc", "outline": "as §1"}, "Neu5Ac(a2-3)GalNAc": {"molecular_target": "Neu5Ac(a2-3)GalNAc", "outline": "as §1"}, "[31]": {"molecular_target": "Neu5Ac(a2-3)GalNAc(b1-4)GlcNAc", "outline": "as §1"}, "[32]": {"molecular_target": "Neu5Ac(a2-3)[GalNAc(b1-4)]Gal(b1-4)Glc", "outline": "as §1"}, "[33]": {"molecular_target": "Neu5Ac(a2-3)[GalNAc(b1-4)]Gal(b1-4)GlcNAc", "outline": "as §1"}, "[34]": {"molecular_target": "Neu5Ac(a2-3)[GalNAc(b1-4)]Gal(b1-4)GlcNAc(b1-3)GalNAc", "outline": "as §1"}, "[35]": {"molecular_target": "Neu5Ac(a2-3)[Neu5Ac(a2-6)]GalNAc", "outline": "as §1"}, "Neu5Ac(a2-6)Gal": {"molecular_target": "Neu5Ac(a2-6)Gal", "outline": "as §1"}}, "note": "The list shows a part of the results.", "data": [{"binder": "B1", "values": [{"measurement": "glycan array binding signal (z-score)", "setting": "[1]", "value": 0.887}, {"measurement": "glycan array binding signal (z-score)", "setting": "[2]", "value": 0.177}, {"measurement": "glycan array binding signal (z-score)", "setting": "[3]", "value": -0.418}, {"measurement": "glycan array binding signal (z-score)", "setting": "[4]", "value": -0.359}, {"measurement": "glycan array binding signal (z-score)", "setting": "[5]", "value": 0.098}, {"measurement": "glycan array binding signal (z-score)", "setting": "[6]", "value": 1.08}, {"measurement": "glycan array binding signal (z-score)", "setting": "[7]", "value": 0.327}, {"measurement": "glycan array binding signal (z-score)", "setting": "[8]", "value": 0.458}, {"measurement": "glycan array binding signal (z-score)", "setting": "[9]", "value": 0.012}, {"measurement": "glycan array binding signal (z-score)", "setting": "[10]", "value": -0.555}, {"measurement": "glycan array binding signal (z-score)", "setting": "[11]", "value": 0.665}, {"measurement": "glycan array binding signal (z-score)", "setting": "[12]", "value": 0.168}, {"measurement": "glycan array binding signal (z-score)", "setting": "[13]", "value": -1.35}, {"measurement": "glycan array binding signal (z-score)", "setting": "[14]", "value": -0.818}, {"measurement": "glycan array binding signal (z-score)", "setting": "[15]", "value": -0.235}, {"measurement": "glycan array binding signal (z-score)", "setting": "[16]", "value": 0.89}, {"measurement": "glycan array binding signal (z-score)", "setting": "[17]", "value": -0.638}, {"measurement": "glycan array binding signal (z-score)", "setting": "[18]", "value": -1.71}, {"measurement": "glycan array binding signal (z-score)", "setting": "[19]", "value": 1.13}, {"measurement": "glycan array binding signal (z-score)", "setting": "[20]", "value": -0.003}, {"measurement": "glycan array binding signal (z-score)", "setting": "[21]", "value": -0.803}, {"measurement": "glycan array binding signal (z-score)", "setting": "[22]", "value": -0.537}, {"measurement": "glycan array binding signal (z-score)", "setting": "[23]", "value": 2.69}, {"measurement": "glycan array binding signal (z-score)", "setting": "[24]", "value": -0.314}, {"measurement": "glycan array binding signal (z-score)", "setting": "[25]", "value": 2.14}, {"measurement": "glycan array binding signal (z-score)", "setting": "[26]", "value": 0.115}, {"measurement": "glycan array binding signal (z-score)", "setting": "[27]", "value": -0.026}, {"measurement": "glycan array binding signal (z-score)", "setting": "[28]", "value": 0.222}, {"measurement": "glycan array binding signal (z-score)", "setting": "[29]", "value": 0.333}, {"measurement": "glycan array binding signal (z-score)", "setting": "[30]", "value": -0.295}, {"measurement": "glycan array binding signal (z-score)", "setting": "Neu5Ac(a2-3)GalNAc", "value": 0.161}, {"measurement": "glycan array binding signal (z-score)", "setting": "[31]", "value": 0.313}, {"measurement": "glycan array binding signal (z-score)", "setting": "[32]", "value": 0.015}, {"measurement": "glycan array binding signal (z-score)", "setting": "[33]", "value": 0.079}, {"measurement": "glycan array binding signal (z-score)", "setting": "[34]", "value": -1.22}, {"measurement": "glycan array binding signal (z-score)", "setting": "[35]", "value": -0.956}, {"measurement": "glycan array binding signal (z-score)", "setting": "Neu5Ac(a2-6)Gal", "value": 0.416}]}]}
